Structures can show the parent of a compound that is named as a salt. This is one part of the list. Most values come without repeats; read them as rough. Square brackets hold non-standard residues; d marks the D form. Peptide text beside a SMILES is read from it. * marks the point of attachment. Benzoyl(4-tBu) = CC(C)(C)c1ccc(C(=O)*)cc1; Lys(Et2) = CCN(CC)CCCC[C@H](N)C(=O)O
tested on: SK-N-BE(2); experiment: inhibition of N-Myc immunofluorescence signal per cell relative to control (fraction); higher = stronger N-Myc protein reduction; details: 1 µM; 9 h

| Structure (SMILES) | inhibition of N-Myc immunofluorescence signal per cell |
| --- | --- |
| Cc1ccc(NS(=O)(=O)c2ccc3c(c2)C2C=CCC2C(c2ccc(C(=O)O)cc2)N3)cc1C (stereo not given) | 0.131 |
| O=C1C(=Cc2cccnc2)C(=O)c2ccccc21 | 0.129 |
| CCN(CC)CCCC[C@H](NC(=O)[C@H](CC(C)C)NC(=O)[C@H](C)NC(=O)[C@H](Cc1ccccc1)NC(=O)c1ccc(C(C)(C)C)cc1)C(=O)N[C@@H](CO)C(=O)OC ({Benzoyl(4-tBu)}-FAL[Lys(Et2)]S-OMe) | 0.141 |
| O=C(/C=C/c1ccccc1)c1ccc(O)cc1 [4'-Hydroxychalcone] | -0.0224 |
| CC(=O)N1CCC(Nc2cc(C(=O)NC[C@H](O)CN3CCc4ccccc4C3)ncn2)CC1 | -0.0194 |
| O=C(c1cc(Cc2n[nH]c(=O)c3ccccc23)ccc1F)N1CCN(C(=O)C2CC2)CC1 [Olaparib] | 0.0224 |
| N#Cc1c2ccc(N)cc2nc2cc(N)ccc12 | 0.152 |
| C#CCOCC(=O)N[C@H](C(=O)N1C[C@H](O)C[C@H]1C(=O)NCc1ccc(-c2scnc2C)cc1)C(C)(C)C [(S,R,S)-AHPC-propargyl] | -0.0632 |
| N[C@H]1C[C@@H]1c1ccc(-c2cccc(O)c2)cc1 | -0.0241 |
| COc1cc(C(N)=O)ccc1NC(=O)[C@@H]1N[C@@H](CC(C)(C)C)[C@@]2(C(=O)Nc3cc(Cl)ccc32)[C@H]1c1cccc(Cl)c1F | 0.0639 |
| [Na+].[Na+].[Na+].[O]=[V]([O-])([O-])[O-] [Sodium orthovanadate] | -0.222 |
| Cn1cc(C(=O)Nc2ccc([C@@H]3C[C@H]3NCC3CC3)cc2)cn1 | -0.0194 |
| O=C(/C=C/c1ccc(CN(CCO)CCc2c[nH]c3ccccc23)cc1)NO [Dacinostat] | 0.134 |
| CN1CCc2c(c3ccccc3n2Cc2ccc(C(=O)NO)cc2)C1 [Tubastatin A (Hydrochloride)] | -0.0421 |
| C=CCO/N=C1\c2ccccc2-c2nc(C#N)c(C#N)nc21 | 0.0338 |
| O=C([C@@H](Cc1cccc(C(F)(F)F)c1)NS(=O)(=O)c1cc(F)c2c(c1)CCNC2)N1CCCC1 [PFI-2 (hydrochloride)] | 0.0556 |
| CCCCc1ccc(NC(C)=O)c(C)c1 | 0.148 |
| CCCC(CCC)C(=O)O [Valproic acid (sodium salt)] | 0.0659 |

Structural class, the entries above with nitrogen in an aromatic ring (nine)

| Structure (SMILES) | inhibition of N-Myc immunofluorescence signal per cell |
| --- | --- |
| O=C1C(=Cc2cccnc2)C(=O)c2ccccc21 | 0.129 |
| CC(=O)N1CCC(Nc2cc(C(=O)NC[C@H](O)CN3CCc4ccccc4C3)ncn2)CC1 | -0.0194 |
| O=C(c1cc(Cc2n[nH]c(=O)c3ccccc23)ccc1F)N1CCN(C(=O)C2CC2)CC1 [Olaparib] | 0.0224 |
| N#Cc1c2ccc(N)cc2nc2cc(N)ccc12 | 0.152 |
| C#CCOCC(=O)N[C@H](C(=O)N1C[C@H](O)C[C@H]1C(=O)NCc1ccc(-c2scnc2C)cc1)C(C)(C)C [(S,R,S)-AHPC-propargyl] | -0.0632 |
| Cn1cc(C(=O)Nc2ccc([C@@H]3C[C@H]3NCC3CC3)cc2)cn1 | -0.0194 |
| O=C(/C=C/c1ccc(CN(CCO)CCc2c[nH]c3ccccc23)cc1)NO [Dacinostat] | 0.134 |
| CN1CCc2c(c3ccccc3n2Cc2ccc(C(=O)NO)cc2)C1 [Tubastatin A (Hydrochloride)] | -0.0421 |
| C=CCO/N=C1\c2ccccc2-c2nc(C#N)c(C#N)nc21 | 0.0338 |

The list continues:

| Structure (SMILES) | inhibition of N-Myc immunofluorescence signal per cell |
| --- | --- |
| CC(=O)O/N=C1\C(=O)N(Cc2cc(Cl)ccc2Cl)c2ccc(Cl)cc21 | 0.00874 |
| COc1cc(C(=O)O)ccc1NC(=O)[C@@H]1N[C@@H](CC(C)(C)C)[C@](C#N)(c2ccc(Cl)cc2F)[C@H]1c1cccc(Cl)c1F [Idasanutlin] | -0.00624 |
| CCOc1cc(/C=C2/C(=O)N(c3ccccc3)N=C2C)cc(Cl)c1OCC(=O)OC | 0.144 |
| C#CCOc1cccc2c1C(=O)N(C1CCC(=O)NC1=O)C2=O (stereo not given) [Thalidomide-propargyl] | 0.0788 |
| CCNCCN(CC)c1nc(Nc2ccc3ncoc3c2)nc(N[C@@H](C)C2CCCCC2)n1 | 0.284 |
| CCCCCC/C=C\CCCCCCCc1cccc(O)c1C(=O)O [Ginkgolic Acid] | 0.221 |
| CS(=O)(=O)c1ccc(NC(=O)c2cc(C#N)c(Sc3c(Cl)cncc3Cl)s2)cc1 [USP7/USP47 inhibitor] | 0.123 |
| Cn1cncc1[C@](O)(COc1ccc(C#N)cc1-c1ccc(OC(F)(F)F)cc1)c1ccc(C#N)cc1 | 0.125 |
| O=C(NO)c1cccc(C(=O)NCCc2ccccc2)c1 | -0.0486 |
| Cn1ncnc1[C@H]1c2n[nH]c(=O)c3cc(F)cc(c23)N[C@@H]1c1ccc(F)cc1 [Talazoparib] | 0.101 |
| O=C(C[C@@H](C(F)F)n1ccc(F)n1)N1CCC(O)(Cn2cnc3c(cnn3-c3ccc(F)cc3)c2=O)CC1 | -0.189 |
| O=C1CCC(N2C(=O)c3ccccc3C2=O)C(=O)N1 (stereo not given) [Thalidomide] | 0.281 |
| CCOC(=O)c1[nH]c2cc(Cl)ccc2c1C(C(=O)NC(C)(C)C)N(C=O)Cc1ccc(Cl)cc1 (stereo not given) | 0.189 |
| COc1ncc(-c2nc3c(n2C(C)C)[C@H](c2ccc(Cl)cc2)N(c2cc(Cl)cn(C)c2=O)C3=O)c(OC)n1 [Siremadlin] | 0.104 |
| NS(=O)(=O)OC[C@H]1C[C@@H](Nc2ncncc2C(=O)c2ccn(Cc3cccc(Br)c3)n2)C[C@@H]1O | 0.0528 |
| CC(=O)N[C@H]1[C@@H](OCc2ccccc2)O[C@H](CO)[C@H](O)[C@@H]1O [Benzyl-α-GalNAc] | -0.0343 |
| CCOc1cc(C(C)(C)C)ccc1C1=N[C@@](C)(c2ccc(Cl)cc2)[C@@](C)(c2ccc(Cl)cc2)N1C(=O)N1CCN(CCCS(C)(=O)=O)CC1 | 0.228 |
